Reference: PubChem BioAssay AID504444 (National Center for Advancing Translational Sciences (NCATS), 2011)
About 7,500 (2.1%) of roughly 360,000 compounds were called active. Inconclusive results, whose numbers are uncertain, are shown with a selection of clear calls. The call rests on the fitted dose curve; in most records, active means well fitted inhibition curve with a large enough effect; inconclusive means small, poorly fitted or top-dose-only effect, or effect the other way; inactive means flat fitted curve, though single readings scatter. Potencies beside an inconclusive call are fits to weak or partial responses and may not hold up.

Assay: Nrf2 qHTS screen for inhibitors; further: nearly all actives have a fitted effect of over 60% in size
Details: A549 ARE-Fluc reporter, luciferase luminescence, 18-24 h; activity change, negative = inhibition: at 46 µM (top of the series)
Outline: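 Reporter: ARE-Fluc in A549. Exposure: 18-24 h, 37 °C, 5% CO2, 5% FBS OPTI-MEM. Readouts: fluorescent cytotoxicity (CellTiter-Fluor), then luminescent Nrf2 signal after BugLite.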
On the % scale 0 is the no-effect control and ±100 the full control effect; potency means the concentration at half of the fitted maximal effect.

Question: Which Potency does the source give for COc1ccc(S(=O)(=O)N2CCCCC2)cc1NC(=O)CCNC(=O)c1ccc(Br)cc1 here?
Answer: The Potency was inconclusive: 6.51 µM [falling, full curve].

Question: With OCc1ccccc1OCCCOc1cccc2cccnc12 as the compound, how does the Potency read?
Answer: The Potency was “inactive”.

Question: For CCOC(=O)C1=C(C)N(CC)C(=S)NC1c1ccc(Cl)cc1 (stereo unspecified), which Potency is on record?
Answer: The Potency was inconclusive: 0.461 µM [falling, partial curve].

Question: Which Potency does the source give for O=S(=O)(NCc1ccncc1)c1ccc(Br)s1 here?
Answer: Its Potency is active: 1.46 µM.

Question: For Cc1nc2ccccn2c1-c1csc(NCc2ccco2)n1, which Potency is on record?
Answer: Its Potency is inconclusive: 20.6 µM [falling, single point].

Question: Which Potency does the source give for Cn1c(=NC(=O)c2cccc([N+](=O)[O-])c2)sc2ccccc21 here?
Answer: The Potency was inconclusive: 3.26 µM [activator, single point].

Question: Which Potency does the source give for Cc1ccc(/C=C/C(=O)Nc2ccc(Oc3ccccc3)cc2)o1 here?
Answer: The Potency was inconclusive: 20.6 µM [falling, single point].

Question: For O=C(/C=C/c1ccc([N+](=O)[O-])cc1)Oc1ccc(/C=N/NC(=O)c2ccncc2)cc1, which Potency is on record?
Answer: Its Potency is “inactive”.

Question: With CCc1ccc(NC(=O)N(CCN2CCOCC2)Cc2ccc3c(c2)CCCN3CC)cc1 as the compound, how does the Potency read?
Answer: The Potency was inconclusive: 18.4 µM [falling, partial curve, poor fit].

Question: Which Potency does the source give for O=C(Nc1nnc(Cc2ccccc2)s1)Nc1ccccc1F here?
Answer: The Potency was inconclusive: 5.8 µM [activator, partial curve].

Question: For COc1ccc(C(=O)Nc2ccc(N3CCOCC3)cc2)cc1S(=O)(=O)NC1CCCC1, which Potency is on record?
Answer: Its Potency is “inactive”.

Question: For O=C(c1cc(C2CC2)nn1-c1ccccc1)N1CCN(S(=O)(=O)c2cccc(F)c2)CC1, which Potency is on record?
Answer: The Potency was inconclusive: 20.6 µM [falling, partial curve].

Question: With Cc1ccc(-c2cc(C(=O)NC3CCCC3)no2)cc1 as the compound, how does the Potency read?
Answer: Its Potency is inconclusive: 20.6 µM [activator, partial curve].

Question: Which Potency does the source give for CN1C(=S)SC(C)(C)C1N(O)C(=O)Nc1ccc(Cl)cc1 (stereo unspecified) here?
Answer: The Potency was “inactive”.

Question: Which Potency does the source give for CC(C)NC(=O)C1(N2C(=O)c3ccccc3C2=O)CCCC1 here?
Answer: The Potency was inconclusive: 16.4 µM [activator, partial curve, poor fit].

Question: For COc1ccc(-c2cc(=Nc3ccc(C(=O)O)cc3)c3cc(C)ccc3o2)cc1, which Potency is on record?
Answer: The Potency was inconclusive: 9.2 µM [activator, partial curve].

Question: Which Potency does the source give for O=C(c1ccc(S(=O)(=O)Nc2cccc(C(F)(F)F)c2)cc1)N1CCN(c2ccccc2O)CC1 here?
Answer: Its Potency is inconclusive: 23.1 µM [falling, single point].

Question: Which Potency does the source give for Cc1ccc(-n2nnnc2SCC(=O)NC2CCCc3ccccc32)c(C)c1 (stereo unspecified) here?
Answer: The Potency was inconclusive: 29.1 µM [falling, single point].

Question: Which Potency does the source give for O=C(CCCN1C(=O)c2cccc3cccc(c23)C1=O)N1CCN(c2ccccc2O)CC1 here?
Answer: The Potency was inconclusive: 18.4 µM [falling, partial curve].

Question: With CC1CC2=C(CC1/C=N/NC(N)=S)C(C)(C)CCC2 (stereo unspecified) as the compound, how does the Potency read?
Answer: The Potency was active: 23.1 µM.

Question: Which Potency does the source give for CCOCCOc1cccc(C(=O)NC(C)c2ccc3ccccc3c2)c1 (stereo unspecified) here?
Answer: Its Potency is inconclusive: 23.1 µM [falling, partial curve, poor fit].

Question: With Cc1ccc(SCCN2CCC(C(C)(C)C)CCC2=O)cc1 (stereo unspecified) as the compound, how does the Potency read?
Answer: The Potency was inconclusive: 9.2 µM [activator, partial curve].

Question: Which Potency does the source give for CC(=O)c1ccc(NC(=O)c2c(C)nn(-c3ccccc3)c2Cl)cc1 here?
Answer: Its Potency is inconclusive: 14.6 µM [activator, partial curve, poor fit].

Question: Which Potency does the source give for Cc1ccc2nc(Cl)c(/C=N/NC(=O)[C@H]3C[C@@H]3c3ccccc3)cc2c1 here?
Answer: Its Potency is inconclusive: 5.8 µM [falling, full curve].

Question: For O=C(NCc1ccc(OC(F)(F)F)cc1)c1ccc2c(c1)S(=O)(=O)c1ccccc1C2=O, which Potency is on record?
Answer: The Potency was inconclusive: 23.1 µM [falling, single point].

Question: For Cc1ccc(NC(=O)NNC(=O)Cn2nc(-c3ccccc3)c(-c3ccccc3)c(C#N)c2=O)cc1, which Potency is on record?
Answer: The Potency was “inactive”.

Question: Which Potency does the source give for Cc1ccc(NS(=O)(=O)c2cccc(C(=O)NC3CCN(Cc4ccccc4)CC3)c2)cc1 here?
Answer: The Potency was inconclusive: 13 µM [falling, partial curve, poor fit].

Question: For Cc1ccc(N=Nc2ccc(O)cc2)c(Br)c1, which Potency is on record?
Answer: Its Potency is inconclusive: 23.1 µM [activator, single point].

Question: For CCc1ccc2[nH]c(=O)c(CN(Cc3ccc(OC)cc3)Cc3nnnn3CCOC)cc2c1, which Potency is on record?
Answer: The Potency was inconclusive: 29.1 µM [falling, single point].

Question: For O=C(COC(=O)c1cc([N+](=O)[O-])ccc1NCCO)Nc1ccc2c(c1)OCO2, which Potency is on record?
Answer: The Potency was active: 10.3 µM.

Question: Which Potency does the source give for CCN(CC)S(=O)(=O)c1cccc(NC(=O)CC2CCCC2)c1 here?
Answer: The Potency was “inactive”.

Question: With O=C(c1nc2ccccc2s1)N1CCSCC1 as the compound, how does the Potency read?
Answer: Its Potency is inconclusive: 7.08 µM [activator, partial curve].

Question: For Cn1c(N2CCN(S(=O)(=O)c3ccc(F)cc3)CC2)nc2ccccc21, which Potency is on record?
Answer: The Potency was inconclusive: 16.4 µM [falling, partial curve, poor fit].

Question: With CC(C)(C)C(=O)Nc1nc(C2CCCN2S(=O)(=O)c2ccc(Cl)cc2)cs1 (stereo unspecified) as the compound, how does the Potency read?
Answer: The Potency was inconclusive: 32.6 µM [falling, single point].

Question: With Cc1[nH]cnc1C(=O)N/N=C/c1ccc([N+](=O)[O-])s1 as the compound, how does the Potency read?
Answer: The Potency was inconclusive: 23.1 µM [falling, partial curve, poor fit].

Question: For Nn1c(SCC(=O)Nc2ccccc2)nnc1C1CCCCC1, which Potency is on record?
Answer: The Potency was “inactive”.

Question: Which Potency does the source give for Cc1ccc(S[C@@H](CCN2CC[C@H](NC(=O)OCc3ccccc3)CCC2=O)c2ccccc2)cc1 here?
Answer: The Potency was inconclusive: 18.4 µM [falling, single point].

Question: Which Potency does the source give for O=C(CN(c1ccc(Cl)c(C(F)(F)F)c1)S(=O)(=O)c1ccccc1)Nc1cccnc1 here?
Answer: The Potency was inconclusive: 32.6 µM [falling, partial curve, poor fit].

Question: Which Potency does the source give for NC(=O)[C@@H]1CC2(CC(c3cccc(NC(=O)COc4ccc(Cl)cc4)c3)=NO2)CN1C(=O)COc1ccc(Cl)cc1 (stereo partly specified) here?
Answer: Its Potency is inconclusive: 18.4 µM [falling, single point].

Question: Which Potency does the source give for CCCCOc1ccc(CONS(=O)(=O)c2ccc(NC(C)=O)cc2)cc1Cl here?
Answer: Its Potency is inconclusive: 16.4 µM [falling, single point].

Question: For Cc1ccc(-c2csc(NC(=O)CCNC(=O)c3ccc(Cl)cc3)n2)cc1, which Potency is on record?
Answer: The Potency was “inactive”.

Question: Which Potency does the source give for COc1cc(OC)cc(-c2cc3nc(C)c(CCC(=O)Nc4ccccc4OC)c(C)n3n2)c1 here?
Answer: Its Potency is inconclusive: 8.2 µM [falling, partial curve, poor fit].

Question: For O=C(NCC(=O)N1CC=C(c2ccccc2)CC1)c1ccccc1Br, which Potency is on record?
Answer: Its Potency is inconclusive: 20.6 µM [falling, single point].

Question: Which Potency does the source give for N#Cc1ccc(C23CC4CC(CC(C4)C2)C3)[nH]c1=O here?
Answer: Its Potency is “inactive”.

Question: For CCCN(C(=O)c1c(C)oc2ncnc(N3CCOCC3)c12)c1ccc(Cl)c(Cl)c1, which activity change, negative = inhibition is on record?
Answer: The activity change, negative = inhibition was inactive: 6.76% [at 9.27 µM].

Question: With Cc1ccc(C(=O)N2CCN(c3cccc(Cl)c3)CC2)cc1C as the compound, how does the Potency read?
Answer: Its Potency is inconclusive: 23.1 µM [falling, partial curve, poor fit].

Question: With c1ccc(-c2cc3c(ccc4nonc43)nn2)cc1 as the compound, how does the Potency read?
Answer: The Potency was inconclusive: 20.6 µM [activator, partial curve].

Question: With COc1cc(SC)ccc1C(=O)OCC(=O)N1CC(=O)Nc2ccccc21 as the compound, how does the Potency read?
Answer: Its Potency is inconclusive: 25.9 µM [activator, single point].

Question: For CO/N=C/C(C#N)c1ncc(C(F)(F)F)cc1Cl (stereo unspecified), which Potency is on record?
Answer: The Potency was inconclusive: 9.2 µM [falling, partial curve, poor fit].

Question: With COc1cc(-c2noc(C)c2C(=O)NCCc2ccccc2)cc(OC)c1OC as the compound, how does the Potency read?
Answer: Its Potency is “inactive”.

Question: With COc1ccc([C@H]2CC(=O)C=C(c3cccc(Cl)c3O)C2)cc1OC as the compound, how does the Potency read?
Answer: Its Potency is “inactive”.

Question: With COc1ccccc1CNC(=O)c1cc2c(-c3ccc(Cl)cc3)nn(C)c2s1 as the compound, how does the Potency read?
Answer: The Potency was inconclusive: 23.1 µM [falling, partial curve, poor fit].

Question: Which Potency does the source give for CC(=O)c1ccc(C(=O)N2CCCC(C(=O)c3ccc(Cl)cc3)C2)s1 (stereo unspecified) here?
Answer: The Potency was inconclusive: 29.1 µM [falling, single point].

Question: For CSc1ncc(-c2ccc(Cl)cc2)[nH]1, which Potency is on record?
Answer: The Potency was inconclusive: 2.91 µM [activator, full curve].

Question: Which Potency does the source give for O=C1C(=O)c2ccccc2C(O)=C1c1ccccc1F here?
Answer: Its Potency is inconclusive: 20.6 µM [falling, partial curve, poor fit].

Question: For CCSc1oc(-c2cccs2)nc1S(=O)(=O)c1ccc(Br)cc1, which activity change, negative = inhibition is on record?
Answer: Its activity change, negative = inhibition is inactive: -14.1% [at 9.27 µM].

Question: For NC(=O)CSc1nc2c(oc3ccccc32)c(=O)n1Cc1ccccc1, which Potency is on record?
Answer: The Potency was inconclusive: 25.9 µM [falling, single point].

Question: With COc1ccc(CCNc2nc(-c3cccc(NC(C)=O)c3)cs2)cc1OC as the compound, how does the Potency read?
Answer: Its Potency is “inactive”.

Question: Which Potency does the source give for COc1ccccc1NC(=O)c1c(Nc2ccccc2C)sc(C(=O)Nc2cccc(Cl)c2)c1N here?
Answer: The Potency was inconclusive: 29.1 µM [falling, single point].

Question: Which Potency does the source give for CC(/C=N/NC(=O)c1cccc([N+](=O)[O-])c1)=C\c1ccccc1 here?
Answer: The Potency was inconclusive: 23.1 µM [falling, partial curve, poor fit].

Question: With CCOc1ccc(N2C(=O)C(CC(=O)Nc3ccc(F)cc3)N(Cc3ccccn3)C2=S)cc1 (stereo unspecified) as the compound, how does the Potency read?
Answer: The Potency was inconclusive: 20.6 µM [falling, single point].

Question: Which Potency does the source give for COc1ccc(CCNC(=O)c2cc(=O)c3cc(C)ccc3o2)cc1OC here?
Answer: Its Potency is inconclusive: 29.1 µM [falling, single point].

Question: Which Potency does the source give for CCOC(=O)N1CCN(c2nc(-c3ccccc3)c3ccccc3n2)CC1 here?
Answer: The Potency was “inactive”.

Question: Which Potency does the source give for CC1CCc2ccccc2N1CC(=O)Nc1cccc(S(=O)(=O)N2CCCC2)c1 (stereo unspecified) here?
Answer: Its Potency is inconclusive: 29.1 µM [falling, single point].

Question: With CCc1nnc2sc(-c3ccc(NC(=O)c4ccc5c(c4)OCCO5)cc3)nn12 as the compound, how does the Potency read?
Answer: The Potency was active: 2.59 µM.

Question: For O=C(NCCC(=O)N1CCN(C(=O)c2ccco2)CC1)c1ccccc1Cl, which Potency is on record?
Answer: The Potency was inconclusive: 2.59 µM [activator, partial curve, poor fit].
